# Data as given in PubChem BioAssay AID694 (Emory University Molecular Libraries Screening Center, 2007).
# By UniProt entry, the sequences of proteins in these tests, tags left out.
# UniProt P03372, whole entry, looked up: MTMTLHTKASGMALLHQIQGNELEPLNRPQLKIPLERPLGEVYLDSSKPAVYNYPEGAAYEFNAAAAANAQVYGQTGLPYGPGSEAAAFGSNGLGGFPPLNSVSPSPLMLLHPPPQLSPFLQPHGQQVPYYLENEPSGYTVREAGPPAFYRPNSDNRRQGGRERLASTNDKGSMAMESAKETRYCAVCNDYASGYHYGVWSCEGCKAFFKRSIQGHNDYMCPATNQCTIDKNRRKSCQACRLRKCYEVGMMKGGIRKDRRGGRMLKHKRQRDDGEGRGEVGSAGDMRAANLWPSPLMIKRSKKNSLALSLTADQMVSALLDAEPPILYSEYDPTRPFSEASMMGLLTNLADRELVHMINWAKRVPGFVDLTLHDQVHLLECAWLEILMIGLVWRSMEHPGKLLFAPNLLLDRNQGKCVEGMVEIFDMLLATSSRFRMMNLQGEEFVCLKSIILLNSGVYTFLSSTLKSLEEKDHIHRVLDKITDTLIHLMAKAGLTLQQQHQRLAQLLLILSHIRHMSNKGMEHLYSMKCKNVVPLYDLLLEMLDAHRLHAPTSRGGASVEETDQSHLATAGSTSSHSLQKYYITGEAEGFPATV
# “And” between values parts separate entries of the source, which are not always exact repeats. Identical values can stand only once. Some of the results follow. The main result of the screen is listed elsewhere. These columns were measured beside it and carry no call.
# Target: Estrogen receptor (Homo sapiens) (UniProt P03372)
# Experiment: blockers of coactivator recruitment to ERα – biochemical, LOPAC library, TR-FRET, primary screen (AID 694);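 note: receptor was agonist-bound with estradiol present during the assay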
# Settings: TR-FRET ERalpha-coactivator peptide binding, at 15 µM, stronger effect = higher value
row,Compound,inhibition
1,CN(C)CCCC1(c2ccc(F)cc2)OCc2cc(C#N)ccc21 (stereo not drawn),-1.19%
2,O=S(=O)(NCCNC/C=C/c1ccc(Br)cc1)c1cccc2cnccc12,-1.9%
3,C[C@H](NC(=O)/C(C#N)=C/c1ccc(O)c(O)c1)c1ccccc1,5.97%
4,CC(C)(C)c1cc(/C=C(\C#N)C(N)=S)cc(C(C)(C)C)c1O,3.07%
5,C[C@H](O)C(=O)C1=Nc2c(nc(N)[nH]c2=O)NC1,-6.12%
6,COc1ccccc1N1CCN(CCN2C(=O)CC3(CCCC3)CC2=O)CC1,-2.59%
7,O=C(O)c1ccccc1Nc1cccc(OCc2ccc3ccccc3n2)c1,0.57%
8,CC(C)(C)NCC(O)c1ccc(O)c(CO)c1 (stereo not drawn),6.99% and 3.63%
9,CCCOC(=O)c1c(-c2ccccc2)nc(CC)c(C(=O)SCC)c1CCC,2.08%
10,O[Si](CCCN1CCCCC1)(c1ccc(F)cc1)C1CCCCC1 (stereo not drawn),3.2%
11,CC1(NCC(O)COc2cccc3[nH]ccc23)CCC(C(C)(C)NC(=O)CBr)CC1 (stereo not drawn),1.63%
12,CCOC(=O)C1=C(C)NC(C)=C(C(=O)OC)C1c1cccc([N+](=O)[O-])c1 (stereo not drawn),-4.29%
13,Cc1nc2c(OCc3ccccc3)cccn2c1CC#N,-4.79%
14,O=C1c2ccccc2-c2n[nH]c3cccc1c23,-4.39%
15,COc1cc2c(c(OC)c1OC)-c1ccc(OC)c(=O)cc1[C@@H](NC(C)=O)CC2,2.39%
16,CNCCCC1c2ccccc2C=Cc2ccccc21,2.54%
17,O=C(Nc1ccccc1)c1cc([N+](=O)[O-])ccc1Cl,-0.12%
18,C[C@H]1CC2C3CCC4=CC(=O)C=C[C@]4(C)[C@@]3(Cl)[C@@H](O)C[C@]2(C)[C@@]1(O)C(=O)CO (stereo partly drawn),0.55%
19,C[N+]1(CCCCC[N+]2(C)CCCC2)CCCC1,-0.57%
20,NC(=NCc1ccccc1)NC(=O)c1nc(Cl)c(N)nc1N,-0.81%
21,Fc1ccc(C(c2ccc(F)cc2)N2CCN(C/C=C/c3ccccc3)CC2)cc1,0.53%
22,COc1cccc2c1[C@@H]1CN(CCCCn3c(=O)[nH]c4c(sc5ncc(-c6ccccc6)nc54)c3=O)C[C@@H]1CO2,-0.3%
23,CN1CCc2cc(O)c(O)cc2C(c2ccccc2)C1 (stereo not drawn),6.72%
24,O=C(O)c1cccnc1Nc1cccc(C(F)(F)F)c1,-4.11%
25,Cc1oncc1C(=O)Nc1ccc(C(F)(F)F)cc1,1.75%

row,Compound,inhibition
1,CCCCCC[C@@H]([C@@H](C)O)n1cnc2c(N)ncnc21,1.04%
2,CC(C)(C(=O)O)c1ccc(C(O)CCCN2CCC(C(O)(c3ccccc3)c3ccccc3)CC2)cc1 (stereo not drawn),-2.04%
3,Cc1cc(C(C)(C)C)c(O)c(C)c1CC1=NCCN1,5.97%
4,CCCCS(=N)(=O)CC[C@H](N)C(=O)O (stereo partly drawn),2.51%
5,CSc1ccc2c(c1)C(N1CCN(C)CC1)Cc1ccccc1S2 (stereo not drawn),3.24%
6,CCCN1C[C@H](CSC)C[C@@H]2c3cccc4[nH]cc(c34)C[C@H]21,-4.39%
7,Cc1ccc(O)c(N=Nc2ccccc2)n1,8.5%
8,NC(=O)C1=CN(C2OC(COP(=O)(O)OP(=O)(O)OC[C@H]3O[C@@H](n4cnc5c(N)ncnc54)C(OP(=O)(O)O)[C@H]3O)C(O)C2O)C=CC1 (stereo partly drawn),-1.52%
9,CC(O)C(O)[C@H]1CNc2nc(N)[nH]c(=O)c2N1 (stereo partly drawn),3.73%
10,CC1=C(/C=C/C(C)=C/C=C/C(C)=C/C(=O)O)C(C)(C)CCC1,5.42%
11,NCCCCN=C(N)N,-4.22%
12,CC(=O)Oc1ccccc1C(=O)O,-3.48%
13,O=C(O)[C@H]1NCCC[C@H]1C(=O)O,-2.1%
14,NC(=O)CNCCC(c1ccccc1)c1ccccc1,1.33%
15,CCO/C([O-])=N/c1c[n+](N2CCOCC2)no1,38.8%
16,CN1C[C@H](C(=O)N[C@]2(C)O[C@@]3(O)[C@@H]4CCCN4C(=O)[C@H](Cc4ccccc4)N3C2=O)C[C@@H]2c3cccc4[nH]cc(c34)C[C@H]21,-4.01%
17,O=C(O)C1CCCN(CCC=C(c2ccccc2)c2ccccc2)C1 (stereo not drawn),29%
18,C[N+](C)(C)CCCCCCCCCC[N+](C)(C)C,3.25%
19,O=C(O)/C(=C/c1c(C(=O)O)[nH]c2cc(Cl)cc(Cl)c12)c1ccccc1,-1.33%
20,N[C@@H](Cc1c[nH]c2ccc(O)cc12)C(=O)O,4.61%
21,Nc1nc(Nc2ccccc2)nc2c1ncn2[C@@H]1O[C@H](CO)[C@H](O)C1O (stereo partly drawn),-6.63%
22,NC(N)=NCCSSCCN=C(N)N,0.94%
23,NCCCCCCNS(=O)(=O)c1cccc2c(Cl)cccc12,-5.27%
24,CN1C2CCC1CC(OC(c1ccccc1)c1ccccc1)C2 (stereo not drawn),-1.62%
25,CCCCCCCCCCCCCCCCCC(=O)NCC(COP(=O)([O-])OCC[N+](C)(C)C)OCC (stereo not drawn),4.76%

row,Compound,inhibition
1,CC(=O)[C@H]1CC[C@H]2[C@@H]3CCC4=CC(=O)CC[C@]4(C)[C@H]3CC[C@]12C,3.9%
2,Cn1c(=O)c2[nH]c(-c3ccccc3)nc2n(C)c1=O,-1.59%
3,CN1CCN(C2Cc3ccccc3Sc3ccc(Cl)cc32)CC1 (stereo not drawn),-0.06%
4,NCCCC(=O)O,-8.48%
5,CC(=O)N[C@@H](Cc1c[nH]c2ccccc12)C(=O)OCc1cc(C(F)(F)F)cc(C(F)(F)F)c1,-1.43%
6,CCN(CC)CCOC(=O)c1cc(Cl)c(N)cc1OC,5.22%
7,N.N.O=C(O)C1(C(=O)O)CCC1.[Pt+2],7.11%
8,NCCCNCCCCNCCCN,0.98%
9,CCN(CC)CCNC(=O)c1cc(Cl)c(N)cc1OC,-4.83%
10,O=C(O)Cc1c[nH]c2ccc(O)cc12,4.54%
11,CN/C(=C\[N+](=O)[O-])NCCSCc1ccc(CN(C)C)o1,1.1%
12,C1COC(NC(C2CC2)C2CC2)=N1,1.79%
13,Cn1c(=O)[nH]c2ncn(C)c2c1=O,8.13%
14,CC1C(=O)N(C)C(=O)c2nc[nH]c21 (stereo not drawn),1.42%
15,Cc1ccc(S(=O)(=O)N[C@@H](Cc2ccccc2)C(=O)CCl)cc1,3.82%
16,c1cnc(N2CCN(Cc3ccc4c(c3)OCO4)CC2)nc1,1.77%
17,Cc1ccccc1N1CCN(S(=O)(=O)C[C@]23CCC(CC2NC(=O)[C@@H](N)CCS(C)(=O)=O)C3(C)C)CC1 (stereo partly drawn),-2.77%
18,Fc1ccc(CN(C2=NCCN2)c2c(Cl)cccc2Cl)cc1,7.37%
19,COc1ccc2c(c1)c(CC(=O)O)c(C)n2C(=O)c1ccc(Cl)cc1,2.24%
20,Nc1nc2ccc(OC(F)(F)F)cc2s1,3.15%
21,O=C(O)c1cc(=O)cc(C(=O)O)[nH]1,-1.49%
22,CNC[C@H](O)c1ccc(O)c(O)c1,-0.57%
23,O=C(CCc1ccc(O)cc1)c1c(O)cc(O)cc1O,15.8%
